In article PMC12560144 one finds binding data, which are given here for 1 substance.

This experiment has as its target T1, 3xFLAG-NRF2 (human) (UniProt Q16236).
T1 sequence: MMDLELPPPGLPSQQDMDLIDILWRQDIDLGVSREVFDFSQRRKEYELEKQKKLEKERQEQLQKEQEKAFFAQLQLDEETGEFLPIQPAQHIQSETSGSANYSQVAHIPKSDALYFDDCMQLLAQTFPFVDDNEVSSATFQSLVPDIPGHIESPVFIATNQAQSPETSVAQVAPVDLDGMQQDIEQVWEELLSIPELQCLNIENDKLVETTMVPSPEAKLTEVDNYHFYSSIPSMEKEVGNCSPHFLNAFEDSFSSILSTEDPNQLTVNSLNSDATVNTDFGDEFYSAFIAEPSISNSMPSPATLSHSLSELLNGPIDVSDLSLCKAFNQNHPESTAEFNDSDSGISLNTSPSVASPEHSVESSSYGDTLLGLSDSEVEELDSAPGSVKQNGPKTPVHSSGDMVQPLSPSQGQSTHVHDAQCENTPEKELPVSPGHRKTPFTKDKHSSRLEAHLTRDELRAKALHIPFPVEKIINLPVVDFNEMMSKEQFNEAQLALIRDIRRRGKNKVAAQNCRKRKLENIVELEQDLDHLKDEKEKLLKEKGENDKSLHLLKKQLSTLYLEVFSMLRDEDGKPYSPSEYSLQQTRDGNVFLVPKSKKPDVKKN
Description: affinity purification with mass spectrometry; 3xFLAG-NRF2 or 3xFLAG-NRF2ΔETGE purified on αFLAG M2 resin from lysates of stably transduced HEK293T cells treated with MLN4924 (500 nM, 16 h); 20 mM HEPES pH 7.5, 150 mM NaCl, 0.2% Nonidet P-40, 4°C; eluted with 3xFLAG peptide; MudPIT, ComPASS.

No constants are given. Whether binding was seen depends on the method and setting. Binding seen in cells or lysates may run through a third protein. These calls come from enrichment with a bait or labelling near it, and not all partners need be listed. Tags and fused reporters may be left off the sequences shown.

Regarding “βTrCP (endogenous, 293T cells) (human (endogenous in HEK293T))”, the binding entry was “binds”.
